# Test results as given in the supplement of paper PMC12889115.
# This is one part of the list. These are raw signals, not scaled to a control.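 Primary screen: polymyxin B was added at a level permeabilizing Salmonella outer membranes while sparing inner membranes. DMSO wells, both with and without polymyxin B, established maximum growth. Plate-to-plate variation meant each plate was ranked on its own, and the lowest-OD600 compounds were selected as hits.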
# Tested on: Salmonella enterica serovar Typhimurium SL1344
# Test: bacterial growth OD600 after 18 h with compound and polymyxin B; higher = more bacterial growth (less inhibition)
# Conditions: 50 µM, Mueller-Hinton broth
Structure (SMILES),bacterial growth OD600 (polymyxin B 0.75 µg/mL),bacterial growth OD600 (polymyxin B 1 µg/mL)
COC(=O)c1ccc([C@@H]2C[C@H]3CN(C)C(=O)[C@]34CCCN24)cc1,0.844,
CCCS(=O)(=O)N1CCC2(CCCN(CCC3CCCCC3)C2=O)C1 (stereo not given),,0.969
Cc1oc(-c2ccc(C(F)(F)F)cc2)nc1CN1CCCCC1c1cccnc1 (stereo not given),,0.024
C=CCC(O)(CC=C)CNC(=O)c1oc2ccc(C)cc2c1C,,0.79
Cc1c(C(C)NC(=O)C2=CC(=O)CC(C)(C)O2)cnn1-c1ccccn1 (stereo not given),0.958,
c1ccc(-c2noc3c2CN(Cc2ccoc2)CC3)cc1,0.805,
CCn1nc(C)c(CNC(=O)CCC2(Cc3ccc(OC)cc3F)CCC(=O)N2)c1C (stereo not given),0.875,
COc1ccc(CC2(CCC(=O)NC(C)Cn3ccc4ccccc43)CCC(=O)N2)c(F)c1 (stereo not given),0.905,
COCC(=O)NC1CCCc2nc(-c3ccccc3)ncc21 (stereo not given),,0.853
Cc1cc(C(=O)N2CCCC(CNS(=O)(=O)c3cccs3)C2)nn1C (stereo not given),,0.903
